Measurements reported in the supplement of paper PMC10849652.
This is one part of the list.

Chains of the proteins cited; added tags and fusions are not shown. Lines headed by an entry give the natural chain unless they say otherwise; changes in a name come on top.
UniProt Q92989: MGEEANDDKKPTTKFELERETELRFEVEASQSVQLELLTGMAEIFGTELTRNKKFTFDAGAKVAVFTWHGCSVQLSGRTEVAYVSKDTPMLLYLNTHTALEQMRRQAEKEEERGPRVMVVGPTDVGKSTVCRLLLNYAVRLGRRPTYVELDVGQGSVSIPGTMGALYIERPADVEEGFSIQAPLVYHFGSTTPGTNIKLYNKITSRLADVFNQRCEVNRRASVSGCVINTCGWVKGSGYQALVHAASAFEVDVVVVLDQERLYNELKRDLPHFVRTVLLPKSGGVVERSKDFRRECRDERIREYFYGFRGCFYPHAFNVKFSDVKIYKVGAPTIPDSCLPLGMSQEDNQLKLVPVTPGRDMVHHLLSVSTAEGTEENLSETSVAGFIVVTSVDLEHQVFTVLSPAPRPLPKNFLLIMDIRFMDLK
UniProt Q86WW8: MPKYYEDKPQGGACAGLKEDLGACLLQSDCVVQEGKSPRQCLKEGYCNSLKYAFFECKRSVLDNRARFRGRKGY
UniProt Q86X52: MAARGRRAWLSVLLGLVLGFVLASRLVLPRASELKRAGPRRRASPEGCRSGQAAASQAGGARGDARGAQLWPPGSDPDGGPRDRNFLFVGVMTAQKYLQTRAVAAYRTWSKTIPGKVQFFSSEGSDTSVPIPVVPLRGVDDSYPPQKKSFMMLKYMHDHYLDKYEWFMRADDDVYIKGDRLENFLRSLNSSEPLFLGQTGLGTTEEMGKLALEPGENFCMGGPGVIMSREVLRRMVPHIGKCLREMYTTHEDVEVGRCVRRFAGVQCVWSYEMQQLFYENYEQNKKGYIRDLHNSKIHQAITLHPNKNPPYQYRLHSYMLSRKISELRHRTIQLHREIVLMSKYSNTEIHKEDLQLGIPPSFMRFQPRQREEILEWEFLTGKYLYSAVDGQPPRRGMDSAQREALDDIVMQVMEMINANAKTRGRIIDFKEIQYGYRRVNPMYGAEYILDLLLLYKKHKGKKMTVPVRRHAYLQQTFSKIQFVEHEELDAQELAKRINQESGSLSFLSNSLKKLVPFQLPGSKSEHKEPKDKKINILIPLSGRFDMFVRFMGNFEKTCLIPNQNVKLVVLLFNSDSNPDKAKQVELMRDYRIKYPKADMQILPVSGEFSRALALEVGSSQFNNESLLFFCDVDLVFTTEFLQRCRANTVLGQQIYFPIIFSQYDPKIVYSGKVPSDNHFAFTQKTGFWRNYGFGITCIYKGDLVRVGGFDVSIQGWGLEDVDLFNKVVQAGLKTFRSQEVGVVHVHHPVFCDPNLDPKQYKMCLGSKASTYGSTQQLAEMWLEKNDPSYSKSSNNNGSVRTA
UniProt P56747: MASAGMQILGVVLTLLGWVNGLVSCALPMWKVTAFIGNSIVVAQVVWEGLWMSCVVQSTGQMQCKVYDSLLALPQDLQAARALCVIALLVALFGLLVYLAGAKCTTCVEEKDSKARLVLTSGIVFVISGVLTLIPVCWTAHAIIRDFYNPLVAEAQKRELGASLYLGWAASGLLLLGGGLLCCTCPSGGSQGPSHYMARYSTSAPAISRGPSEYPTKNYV
UniProt P56277: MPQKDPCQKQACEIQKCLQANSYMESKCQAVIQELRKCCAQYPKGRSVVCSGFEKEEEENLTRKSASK
UniProt Q07065: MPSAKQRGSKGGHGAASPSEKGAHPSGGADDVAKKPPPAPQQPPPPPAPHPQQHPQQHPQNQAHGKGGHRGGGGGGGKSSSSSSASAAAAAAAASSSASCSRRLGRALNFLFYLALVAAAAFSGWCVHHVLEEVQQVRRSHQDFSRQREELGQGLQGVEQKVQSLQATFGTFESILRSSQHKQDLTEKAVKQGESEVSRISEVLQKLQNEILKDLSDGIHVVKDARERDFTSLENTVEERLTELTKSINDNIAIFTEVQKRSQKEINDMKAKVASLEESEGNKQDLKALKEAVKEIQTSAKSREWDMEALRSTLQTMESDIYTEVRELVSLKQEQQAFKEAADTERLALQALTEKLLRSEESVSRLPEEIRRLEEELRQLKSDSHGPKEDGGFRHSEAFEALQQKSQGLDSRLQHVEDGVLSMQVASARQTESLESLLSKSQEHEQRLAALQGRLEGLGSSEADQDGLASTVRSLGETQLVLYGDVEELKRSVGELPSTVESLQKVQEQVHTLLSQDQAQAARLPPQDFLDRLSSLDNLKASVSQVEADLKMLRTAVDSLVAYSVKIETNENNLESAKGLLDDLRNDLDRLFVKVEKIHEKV
UniProt Q9UBY8, whole entry, looked up: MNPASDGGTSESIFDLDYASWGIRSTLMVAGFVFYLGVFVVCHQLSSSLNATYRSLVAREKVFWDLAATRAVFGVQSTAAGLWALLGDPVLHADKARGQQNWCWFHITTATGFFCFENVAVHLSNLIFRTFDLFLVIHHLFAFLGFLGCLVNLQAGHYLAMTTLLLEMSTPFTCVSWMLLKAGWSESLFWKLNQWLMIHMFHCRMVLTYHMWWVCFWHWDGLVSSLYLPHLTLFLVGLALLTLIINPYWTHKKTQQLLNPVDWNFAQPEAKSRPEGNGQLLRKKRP
UniProt Q8N3K9: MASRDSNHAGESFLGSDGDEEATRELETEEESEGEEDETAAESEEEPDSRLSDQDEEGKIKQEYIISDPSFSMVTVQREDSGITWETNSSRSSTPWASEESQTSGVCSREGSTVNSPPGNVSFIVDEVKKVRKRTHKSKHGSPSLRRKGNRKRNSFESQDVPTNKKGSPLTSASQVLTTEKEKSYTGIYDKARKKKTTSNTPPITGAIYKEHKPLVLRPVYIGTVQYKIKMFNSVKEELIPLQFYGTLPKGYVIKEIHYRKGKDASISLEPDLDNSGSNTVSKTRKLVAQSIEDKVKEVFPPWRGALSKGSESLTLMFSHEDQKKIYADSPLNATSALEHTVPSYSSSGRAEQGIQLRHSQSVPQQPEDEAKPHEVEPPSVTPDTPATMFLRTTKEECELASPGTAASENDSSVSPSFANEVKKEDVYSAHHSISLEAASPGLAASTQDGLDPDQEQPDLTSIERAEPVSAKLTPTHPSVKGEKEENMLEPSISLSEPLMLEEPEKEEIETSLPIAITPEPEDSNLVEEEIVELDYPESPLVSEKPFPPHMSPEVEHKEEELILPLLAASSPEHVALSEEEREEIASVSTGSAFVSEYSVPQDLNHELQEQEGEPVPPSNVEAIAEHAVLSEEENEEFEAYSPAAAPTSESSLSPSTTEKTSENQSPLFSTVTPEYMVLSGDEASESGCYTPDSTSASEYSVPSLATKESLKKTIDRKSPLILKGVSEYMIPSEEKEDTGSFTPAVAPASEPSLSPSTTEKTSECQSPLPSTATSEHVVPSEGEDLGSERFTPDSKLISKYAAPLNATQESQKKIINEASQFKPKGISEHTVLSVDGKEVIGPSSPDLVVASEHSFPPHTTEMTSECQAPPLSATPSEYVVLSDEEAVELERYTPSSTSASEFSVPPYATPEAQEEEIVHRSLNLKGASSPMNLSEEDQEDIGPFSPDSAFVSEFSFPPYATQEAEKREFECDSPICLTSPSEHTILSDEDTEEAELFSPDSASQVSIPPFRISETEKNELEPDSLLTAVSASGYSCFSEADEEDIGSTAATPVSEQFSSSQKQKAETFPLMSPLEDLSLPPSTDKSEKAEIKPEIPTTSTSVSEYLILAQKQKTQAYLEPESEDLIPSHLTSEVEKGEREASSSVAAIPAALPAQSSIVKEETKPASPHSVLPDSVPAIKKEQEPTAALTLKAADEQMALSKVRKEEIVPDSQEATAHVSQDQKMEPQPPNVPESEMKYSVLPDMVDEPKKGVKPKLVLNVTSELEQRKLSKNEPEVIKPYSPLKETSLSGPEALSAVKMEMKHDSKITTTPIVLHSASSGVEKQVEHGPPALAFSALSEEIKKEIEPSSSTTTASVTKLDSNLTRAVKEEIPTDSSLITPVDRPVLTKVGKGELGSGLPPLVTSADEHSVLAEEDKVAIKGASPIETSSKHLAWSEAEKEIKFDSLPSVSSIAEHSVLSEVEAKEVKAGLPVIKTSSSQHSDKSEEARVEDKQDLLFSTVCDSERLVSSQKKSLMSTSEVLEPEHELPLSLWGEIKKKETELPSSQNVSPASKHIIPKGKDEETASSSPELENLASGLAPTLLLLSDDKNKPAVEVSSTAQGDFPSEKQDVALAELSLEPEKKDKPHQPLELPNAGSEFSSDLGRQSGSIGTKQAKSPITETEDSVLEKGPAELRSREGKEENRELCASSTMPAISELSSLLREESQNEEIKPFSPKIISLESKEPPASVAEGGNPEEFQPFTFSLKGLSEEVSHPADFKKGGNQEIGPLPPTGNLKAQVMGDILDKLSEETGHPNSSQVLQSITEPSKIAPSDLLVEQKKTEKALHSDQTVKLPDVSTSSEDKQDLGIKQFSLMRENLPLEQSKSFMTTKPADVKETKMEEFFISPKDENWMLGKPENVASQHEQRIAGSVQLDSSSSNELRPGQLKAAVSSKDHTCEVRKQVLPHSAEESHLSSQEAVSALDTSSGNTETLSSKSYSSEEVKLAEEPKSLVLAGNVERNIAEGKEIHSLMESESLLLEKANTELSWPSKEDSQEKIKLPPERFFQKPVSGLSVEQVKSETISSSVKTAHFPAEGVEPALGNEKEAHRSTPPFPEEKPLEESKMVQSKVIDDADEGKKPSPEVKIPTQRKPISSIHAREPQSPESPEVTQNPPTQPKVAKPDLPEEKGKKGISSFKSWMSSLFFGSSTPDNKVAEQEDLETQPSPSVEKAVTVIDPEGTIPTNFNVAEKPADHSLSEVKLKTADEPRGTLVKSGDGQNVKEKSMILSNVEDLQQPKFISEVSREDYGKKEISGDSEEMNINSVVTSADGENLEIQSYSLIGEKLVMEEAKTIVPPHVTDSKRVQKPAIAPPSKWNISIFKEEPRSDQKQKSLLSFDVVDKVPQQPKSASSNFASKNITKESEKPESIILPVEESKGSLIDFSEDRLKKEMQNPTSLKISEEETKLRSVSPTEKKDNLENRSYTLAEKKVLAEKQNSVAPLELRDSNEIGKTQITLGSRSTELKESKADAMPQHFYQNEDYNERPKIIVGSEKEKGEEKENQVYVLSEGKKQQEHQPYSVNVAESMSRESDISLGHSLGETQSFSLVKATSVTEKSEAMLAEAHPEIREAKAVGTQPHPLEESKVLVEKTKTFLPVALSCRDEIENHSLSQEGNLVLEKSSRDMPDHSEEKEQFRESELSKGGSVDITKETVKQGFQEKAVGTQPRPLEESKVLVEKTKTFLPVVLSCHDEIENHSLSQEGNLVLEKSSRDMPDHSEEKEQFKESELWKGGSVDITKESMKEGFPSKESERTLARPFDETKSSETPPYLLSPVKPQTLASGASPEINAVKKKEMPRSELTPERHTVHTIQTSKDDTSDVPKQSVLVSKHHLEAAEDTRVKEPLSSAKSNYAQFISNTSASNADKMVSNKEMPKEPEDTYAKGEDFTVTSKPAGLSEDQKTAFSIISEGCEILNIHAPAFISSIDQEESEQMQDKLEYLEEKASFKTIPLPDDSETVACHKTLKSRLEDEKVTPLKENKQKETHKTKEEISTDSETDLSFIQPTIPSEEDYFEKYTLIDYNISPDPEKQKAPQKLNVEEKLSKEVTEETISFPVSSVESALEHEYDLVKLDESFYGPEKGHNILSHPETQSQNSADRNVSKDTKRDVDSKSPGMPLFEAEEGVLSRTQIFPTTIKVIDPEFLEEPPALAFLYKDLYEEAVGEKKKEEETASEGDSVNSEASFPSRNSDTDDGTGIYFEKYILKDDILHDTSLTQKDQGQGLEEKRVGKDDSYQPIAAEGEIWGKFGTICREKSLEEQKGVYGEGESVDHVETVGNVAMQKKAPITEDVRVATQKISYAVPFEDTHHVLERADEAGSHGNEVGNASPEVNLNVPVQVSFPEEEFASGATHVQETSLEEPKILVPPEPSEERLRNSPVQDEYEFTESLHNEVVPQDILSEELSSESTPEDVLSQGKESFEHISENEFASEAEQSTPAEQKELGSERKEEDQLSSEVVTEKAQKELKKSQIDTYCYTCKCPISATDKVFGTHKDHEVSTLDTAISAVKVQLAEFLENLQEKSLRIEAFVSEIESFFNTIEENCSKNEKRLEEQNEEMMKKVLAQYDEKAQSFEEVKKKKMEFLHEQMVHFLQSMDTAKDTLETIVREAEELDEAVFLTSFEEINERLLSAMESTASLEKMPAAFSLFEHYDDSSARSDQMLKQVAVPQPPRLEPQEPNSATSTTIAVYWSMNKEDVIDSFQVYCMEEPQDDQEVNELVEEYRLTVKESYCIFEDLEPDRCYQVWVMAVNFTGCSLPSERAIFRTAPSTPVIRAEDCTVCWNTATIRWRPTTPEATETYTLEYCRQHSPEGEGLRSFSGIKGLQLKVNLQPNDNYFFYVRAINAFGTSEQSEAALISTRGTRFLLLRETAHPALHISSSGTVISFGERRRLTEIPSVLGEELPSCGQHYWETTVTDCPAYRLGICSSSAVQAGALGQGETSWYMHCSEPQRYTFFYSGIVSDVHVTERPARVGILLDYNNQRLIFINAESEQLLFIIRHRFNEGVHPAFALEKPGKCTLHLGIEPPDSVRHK

Columns and labels:
Assay in all cases: log2 fold change, soluble protein after heating vs DMSO (PISA); higher = thermal stabilisation; K562 cells, 10 uM, 30 min; active = over 0.2 and 3.5 SD of the protein, either way, in both replicates (recomputed)
[1] = compound: CS(=O)(=O)c1ccc(-c2cnc(N)c(C(=O)Nc3ccccc3)n2)cc1
How it was run: (§1)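 Quantification of soluble protein used TMTpro 16plex LC-MS/MS, with channel sums equalised. Samples were the supernatant after 21,000xg for 90 min of pooled aliquots from K562 cells (2×10^6 cells/mL) treated with 10 μM compound for 30 min, heated for 3 min over 48°C-58°C, and extracted in PBS with 0.5% NP-40 at 4°C. Values, from duplicates, describe thermal stability against control samples on a log2 fold-change scale.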

[2] = compound: C[C@H](C1=CC=C(C=C1)C(=O)NC2=C3C=CNC3=NC=C2)N
How it was run: as §1

tozasertib = compound: Cc1cc(Nc2cc(N3CCN(C)CC3)nc(Sc3ccc(NC(=O)C4CC4)cc3)n2)n[nH]1 [tozasertib]
How it was run: as §1

bafetinib = compound: Cc1ccc(NC(=O)c2ccc(CN3CC[C@H](N(C)C)C3)c(C(F)(F)F)c2)cc1Nc1nccc(-c2cncnc2)n1 [bafetinib]
How it was run: as §1

[3] = compound: Cn1cc(-c2ccc3c(c2)CCN3C(=O)Cc2cccc(C(F)(F)F)c2)c2c(N)ncnc21
How it was run: as §1

mubritinib = compound: FC(F)(F)c1ccc(/C=C/c2nc(COc3ccc(CCCCn4ccnn4)cc3)co2)cc1 [mubritinib]
How it was run: as §1

[4] = compound: C[C@@H]1COCCN1C2=NC(=NC(=C2)C3(CC3)S(=O)(=O)C)C4=C5C=CNC5=CC=C4
How it was run: as §1

duvelisib = compound: C[C@H](Nc1ncnc2nc[nH]c12)c1cc2cccc(Cl)c2c(=O)n1-c1ccccc1 [duvelisib]
How it was run: as §1

gandotinib = compound: Cc1cc(Nc2cc(CN3CCOCC3)c3nc(C)c(Cc4ccc(Cl)cc4F)n3n2)n[nH]1 [gandotinib]
How it was run: as §1

[5] = compound: Cc1cc(SCc2sc(-c3ccc(C(F)(F)F)cc3)nc2C)ccc1OCC(=O)O
How it was run: as §1

ispinesib = compound: Cc1ccc(C(=O)N(CCCN)[C@@H](c2nc3cc(Cl)ccc3c(=O)n2Cc2ccccc2)C(C)C)cc1 [ispinesib]
How it was run: as §1

[6] = compound: Cc1cccc(CC(=O)N2CCc3c2ccc(-c2cn(C)c4ncnc(N)c24)c3F)n1
How it was run: as §1

dasatinib = compound: Cc1nc(Nc2ncc(C(=O)Nc3c(C)cccc3Cl)s2)cc(N2CCN(CCO)CC2)n1 [dasatinib]
How it was run: as §1

[7] = compound: Cn1cc(-c2ccc3nnc(C(F)(F)c4ccc5ncccc5c4)n3n2)cn1
How it was run: as §1

crizotinib = compound: C[C@@H](Oc1cc(-c2cnn(C3CCNCC3)c2)cnc1N)c1c(Cl)ccc(F)c1Cl [crizotinib]
How it was run: as §1

doramapimod = compound: Cc1ccc(-n2nc(C(C)(C)C)cc2NC(=O)Nc2ccc(OCCN3CCOCC3)c3ccccc23)cc1 [doramapimod]
How it was run: as §1

nilotinib = compound: Cc1cn(-c2cc(NC(=O)c3ccc(C)c(Nc4nccc(-c5cccnc5)n4)c3)cc(C(F)(F)F)c2)cn1 [nilotinib]
How it was run: as §1

[8] = compound: Cc1nc(Nc2n[nH]c3c2CN(C(=O)N[C@H](CN(C)C)c2ccccc2)C3(C)C)c2sccc2n1
How it was run: as §1

[9] = compound: Cc1ncc(-c2ccnc(Nc3ccc(S(C)(=O)=O)cc3)n2)n1C(C)C
How it was run: as §1

tipifarnib = compound: Cn1cncc1[C@@](N)(c1ccc(Cl)cc1)c1ccc2c(c1)c(-c1cccc(Cl)c1)cc(=O)n2C [tipifarnib]
How it was run: as §1

Measured: log2 fold change

CLP1 (UniProt Q92989)
inactive: [1] 0.027 | [2] 0.057 | tozasertib -0.023 | bafetinib -0.051 | [3] 0.044 | mubritinib -0.083

CHUK (UniProt O15111)
inactive: [4] -0.294 | [2] 0.462 | duvelisib -0.034 | gandotinib 0.047 | tozasertib 0.256 | [5] 0.089 | ispinesib -0.29 | [6] 0.17 | dasatinib 0.132 | [3] -0.159 | [7] -0.122 | mubritinib 0.213

COA5 (UniProt Q86WW8)
inactive: crizotinib -0.273 | [4] 0.12 | [2] -0.233 | duvelisib 0.039 | [5] 0.058 | doramapimod -0.042 | dasatinib -0.099 | [3] -0.03

CNOT6 (UniProt Q9ULM6)
inactive: [1] -0.134 | [2] 0.082 | duvelisib 0.167 | gandotinib -0.066 | [5] 0.003 | ispinesib -0.15 | bafetinib 0.042 | [6] 0.404 | nilotinib 0.005 | [8] -0.13 | dasatinib -0.125 | [9] 0.024 | [3] 0.078 | [7] -0.176 | mubritinib 0.118

CHSY1 (UniProt Q86X52)
inactive: [4] -0.315

CNRIP1 (UniProt Q96F85)
inactive: [4] 0.209 | ispinesib -0.147 | nilotinib -0.066 | [8] -0.071 | [9] 0.056 | [7] 0.038 | tipifarnib -0.075 | mubritinib -0.148

CLDN6 (UniProt P56747)
inactive: duvelisib -0.109 | gandotinib -0.205 | [5] 0.027 | [6] -0.018 | dasatinib -0.042

Pulled one by one from above, 2 records:
CHSY1 (UniProt Q86X52)
inactive: [4] -0.315

CLP1 (UniProt Q92989)
inactive: [1] 0.027 | [2] 0.057 | tozasertib -0.023 | bafetinib -0.051 | [3] 0.044 | mubritinib -0.083

Continued:

CLASP2 (UniProt O75122)
inactive: crizotinib -0.21 | [2] 0.155 | doramapimod 0.132 | ispinesib -0.007 | bafetinib -0.098 | nilotinib 0.014 | [8] -0.278 | [9] -0.231 | [3] -0.155 | [7] -0.344 | tipifarnib 0.045 | mubritinib 0.027

COG6 (UniProt Q9Y2V7)
inactive: [2] 0.323 | duvelisib -0.15 | tozasertib 0.042 | [5] 0.188 | ispinesib 0.131 | dasatinib -0.171 | [3] -0.637 | [7] 0.034 | tipifarnib 0.04 | mubritinib -0.062

CMC4 (UniProt P56277)
inactive: crizotinib 0.189 | [2] -0.11 | duvelisib 0.212 | gandotinib -0.029 | [5] 0.013 | doramapimod 0.11 | ispinesib -0.057 | [6] -0.068 | dasatinib -0.116 | [3] 0.206 | [7] 0.206 | tipifarnib 0.097

CKS2 (UniProt P33552)
inactive: gandotinib -0.272 | [5] -0.038 | bafetinib -0.021 | [6] 0.048 | nilotinib -0.008 | [8] -0.188 | dasatinib 0.096 | [9] -0.222 | tipifarnib -0.047 | mubritinib 0.325

CKAP4 (UniProt Q07065)
inactive: [1] 0.072 | [2] -0.144 | duvelisib 0.163 | tozasertib -0.01 | [5] -0.056 | ispinesib 0.151 | nilotinib -0.006 | [8] 0.063 | dasatinib -0.028 | [9] -0.068 | [3] 0.165 | [7] 0.053 | tipifarnib 0.019 | mubritinib 0.002

CLCNKB (UniProt P51801)
inactive: crizotinib 0.112 | [4] 0.103 | [2] -0.064 | duvelisib -0.004 | gandotinib -0.1 | [5] -0.047 | doramapimod -0.038 | [6] -0.04 | nilotinib 0.015 | [8] -0.053 | dasatinib 0.024 | [9] -0.069 | [3] 0.108 | tipifarnib 0.209

CNBP (UniProt P62633)
inactive: [1] 0.083 | [2] 0.096 | duvelisib 0.014 | gandotinib 0.165 | [5] -0.089 | bafetinib -0.031 | [6] -0.048 | nilotinib -0.012 | [8] 0.025 | dasatinib 0 | [9] 0.032 | [3] -0.069 | tipifarnib 0.093 | mubritinib -0.046

CLCN5 isoform 2 (UniProt P51795)
inactive: crizotinib -0.321 | [2] -0.123 | gandotinib -0.083 | [5] -0.049 | doramapimod -0.03 | [6] 0.048 | nilotinib -0.176 | [8] 0.014 | dasatinib -0.177 | [9] -0.063 | [3] 0.041 | [7] -0.061
active: ispinesib -0.419

CLN8 (UniProt Q9UBY8)
active: [6] -0.662
inactive: [1] -0.006 | [2] 0.161 | gandotinib -0.1 | [5] -0.09 | ispinesib -0.15 | bafetinib -0.209 | nilotinib 0.051 | [8] -0.11 | dasatinib 0.032 | [9] -0.083 | [3] 0.258 | [7] 0.266 | tipifarnib 0.003 | mubritinib -0.08

CLN3 (UniProt Q13286)
inactive: crizotinib -0.327 | [4] 0.066 | [2] 0.071 | [5] -0.085 | doramapimod -0.047 | ispinesib -0.307 | bafetinib -0.099 | nilotinib -0.016 | [8] 0.002 | dasatinib 0.064 | [9] -0.02 | [3] -0.049 | [7] 0.028 | tipifarnib 0.1 | mubritinib 0.09

CMYA5 (UniProt Q8N3K9)
inactive: [1] 0.269 | [2] 0.515 | tozasertib -0.241 | ispinesib 0.088 | bafetinib -0.308 | nilotinib -0.109 | [8] 0.034 | [9] -0.105 | [3] 0.053 | [7] 0.024 | mubritinib -0.017

CNOT4 isoform 9 (UniProt O95628)
active: [2] 0.484
inactive: crizotinib -0.094 | gandotinib -0.059 | [5] -0.086 | doramapimod 0.274 | ispinesib -0.102 | bafetinib 0.081 | [6] 0.067 | nilotinib 0.094 | [8] -0.172 | dasatinib 0.074 | [9] 0 | [3] 0.096 | [7] 0.036 | tipifarnib -0.019 | mubritinib 0.055

CNTRL (UniProt Q7Z7A1)
inactive: [1] -0.014 | [2] 0.217 | duvelisib 0.001 | tozasertib 0.141 | [5] 0.02 | ispinesib 0.029 | nilotinib -0.349 | [8] -0.023 | dasatinib -0.029 | [9] 0.059 | [3] -0.061 | [7] 0.014
